According to the supplement of paper PMC12819154, “High-throughput peptide-centric local stability assay extends protein–ligand identification to membrane proteins, tissues and bacteria” (Nature Structural & Molecular Biology, 2025):
Some of the results follow. Most values lie at the level of the controls, where differences are scatter.

The chains behind the UniProt entries cited, without tags or fusion partners. Where a name states a change or a piece, a line headed by the entry shows the natural chain unless it says otherwise.
UniProt Q9D071: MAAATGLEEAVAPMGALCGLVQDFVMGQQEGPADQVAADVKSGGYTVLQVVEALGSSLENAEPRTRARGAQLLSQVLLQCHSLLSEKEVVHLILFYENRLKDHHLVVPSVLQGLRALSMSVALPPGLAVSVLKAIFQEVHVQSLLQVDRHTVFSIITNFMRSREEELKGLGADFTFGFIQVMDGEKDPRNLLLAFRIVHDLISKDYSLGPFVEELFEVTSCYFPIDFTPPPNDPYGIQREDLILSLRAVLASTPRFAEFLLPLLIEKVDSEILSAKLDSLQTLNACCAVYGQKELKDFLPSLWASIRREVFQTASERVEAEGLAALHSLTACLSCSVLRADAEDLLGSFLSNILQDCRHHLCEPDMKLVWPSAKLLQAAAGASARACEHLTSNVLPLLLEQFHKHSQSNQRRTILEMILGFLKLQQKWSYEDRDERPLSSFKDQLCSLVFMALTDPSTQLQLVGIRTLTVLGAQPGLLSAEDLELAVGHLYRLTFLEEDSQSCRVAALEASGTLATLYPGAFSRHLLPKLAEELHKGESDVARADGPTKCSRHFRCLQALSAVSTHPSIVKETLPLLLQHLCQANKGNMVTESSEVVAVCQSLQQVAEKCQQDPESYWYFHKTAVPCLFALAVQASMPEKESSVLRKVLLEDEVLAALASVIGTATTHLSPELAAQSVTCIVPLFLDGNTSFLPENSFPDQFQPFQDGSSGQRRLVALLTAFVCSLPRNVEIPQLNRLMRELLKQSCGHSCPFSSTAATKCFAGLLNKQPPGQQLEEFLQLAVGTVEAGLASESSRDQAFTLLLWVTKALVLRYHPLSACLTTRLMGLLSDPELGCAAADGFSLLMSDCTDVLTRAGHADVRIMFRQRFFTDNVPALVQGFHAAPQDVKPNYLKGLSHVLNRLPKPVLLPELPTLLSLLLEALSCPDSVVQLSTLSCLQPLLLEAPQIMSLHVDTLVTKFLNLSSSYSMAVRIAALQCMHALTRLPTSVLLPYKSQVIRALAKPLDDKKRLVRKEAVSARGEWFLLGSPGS
UniProt Q9CSP9: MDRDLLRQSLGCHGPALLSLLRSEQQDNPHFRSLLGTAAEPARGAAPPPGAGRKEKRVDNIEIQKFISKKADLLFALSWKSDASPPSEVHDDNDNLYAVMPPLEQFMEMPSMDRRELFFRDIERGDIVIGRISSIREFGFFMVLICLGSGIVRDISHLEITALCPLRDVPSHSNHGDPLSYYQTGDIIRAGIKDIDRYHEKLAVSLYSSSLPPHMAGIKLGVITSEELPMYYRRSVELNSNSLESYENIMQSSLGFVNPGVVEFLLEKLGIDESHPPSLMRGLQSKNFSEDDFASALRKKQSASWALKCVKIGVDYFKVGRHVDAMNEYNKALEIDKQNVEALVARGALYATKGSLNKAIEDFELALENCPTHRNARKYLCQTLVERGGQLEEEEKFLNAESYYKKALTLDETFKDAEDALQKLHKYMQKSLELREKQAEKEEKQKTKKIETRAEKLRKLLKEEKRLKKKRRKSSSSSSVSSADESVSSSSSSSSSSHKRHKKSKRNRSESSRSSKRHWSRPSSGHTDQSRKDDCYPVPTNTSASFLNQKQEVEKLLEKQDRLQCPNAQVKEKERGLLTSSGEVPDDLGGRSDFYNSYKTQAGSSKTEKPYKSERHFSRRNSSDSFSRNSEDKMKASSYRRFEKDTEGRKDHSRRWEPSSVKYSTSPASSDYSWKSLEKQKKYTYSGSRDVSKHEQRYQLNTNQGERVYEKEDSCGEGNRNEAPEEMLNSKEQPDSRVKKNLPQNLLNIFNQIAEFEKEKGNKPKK
UniProt Q9CZ09: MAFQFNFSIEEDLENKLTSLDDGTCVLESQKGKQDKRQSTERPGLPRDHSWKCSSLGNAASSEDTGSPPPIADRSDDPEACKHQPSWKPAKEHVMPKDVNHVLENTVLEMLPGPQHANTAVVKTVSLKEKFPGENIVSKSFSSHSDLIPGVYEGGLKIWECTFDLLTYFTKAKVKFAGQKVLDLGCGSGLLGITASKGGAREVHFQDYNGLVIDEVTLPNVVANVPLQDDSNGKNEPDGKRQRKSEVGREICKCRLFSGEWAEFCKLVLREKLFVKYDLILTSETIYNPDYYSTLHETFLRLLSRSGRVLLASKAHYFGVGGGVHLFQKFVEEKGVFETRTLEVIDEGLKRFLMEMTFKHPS
UniProt Q9CRC6: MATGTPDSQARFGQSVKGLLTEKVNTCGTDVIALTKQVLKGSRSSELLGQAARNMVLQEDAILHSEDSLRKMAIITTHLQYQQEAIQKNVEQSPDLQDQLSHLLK

The targets below were run with CN[C@@H]1C[C@H]2O[C@@](C)([C@@H]1OC)n1c3ccccc3c3c4c(c5c6ccccc6n2c5c31)C(=O)NC4 [staurosporine] (assay: log2 fold change of tryptic peptide abundance, ligand vs vehicle (limited proteolysis) (log2 ratio); higher = more trypsin-susceptible (destabilized)). Conditions: ligand concentration: 20 uM; sample: mouse liver crude lysate; replicate design: treated separately.

Target | log2 fold change
UniProt Q9D071 (peptide sequence: ETLPLLLQHLCQANK, peptide start residue: 572) | 0.303
UniProt Q9CSP9 (peptide sequence: HVDAMNEYNK, peptide start residue: 322) | 0.531
UniProt Q9CZ09 (peptide sequence: TLEVIDEGLKR, peptide start residue: 341) | 0.318
UniProt Q9CRC6 (peptide sequence: SSELLGQAAR, peptide start residue: 44) | -0.211
